Test results taken from PubChem BioAssay AID1508600 (Functional Genomics Laboratory (NCATS/FGL), 2020).
Hit rate of the full screen: of about 53,000 sequences, about 3,700 (7%) were called active.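 How the source made its calls: active means gene knockdowns whose robust z-score for IL-1 alpha signal is at least 2 or at most -2, so actives lie on both sides; inactive means the rest.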 The list shows a part of the results.

Assay: Components of the Cytosolic LPS Sensing Pathway: Gene Identification via Genome-wide siRNA Screen;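 further: robust z of the log signal after scaling to non-targeting control siRNA wells of the plate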
Settings: RAW264.7 macrophages, IL-1a HTRF, actives lie on both sides, screened at 100 nM (by protocol), cells primed 5 h with Pam3CSK4 first
Outline: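 Knockdown: 100 nM siRNA, 48h, RAW264.7. Stimulation: Pam3CSK4 5 h, then LipidA via TransIT-TKO 24 h. Output: supernatant IL-1a HTRF, negative-control-normalized, log robust z-score; viability by CellTiter-Glo.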

z-score, active:
GCCUCGAGAUAUUCUUUGUTT against Snrnp200 -2.07, GGAUCUUUACUGCUUUGUGTT against Picalm 2.42, CGCAGAACGUGAACACCAATT against Smad3 -2.47, GCAAUGAGUGCUAGUUUUUTT against Cdc42 2.6, GGCAGAAAGAUUAUGAGUUTT against Gpr171 2.35, GCAGUUGAGUCCACCUCAATT against Ccdc187 2.18, CCCAGGUUCCGGAGAACAATT against Abcc5 2.14

z-score, inactive:
GGUCGAGCAGAGUUGAAUCTT against Tars -1.34, CCUAUUCUAUGAUGCACCCTT against Cyp2f2 0.145, GGUUCUUGAUGAAAAUCUATT against Acox1 0.965, CAGUGAUCGUCAUAGCCAUTT against Olfr478 0.135, GGAACAUGUUUGAGUUUAATT against Ints11 -0.409, GGAAAUGAUGAGCAAGUUATT against Dcaf5 -1.18, GGUCCAAGAAGACAAUGCUTT against Cga -0.102, CCGGUUCACUGCUUGACCUTT against Wbp1 0.87, GCCUUUAUAGGAUUUCAAATT against Ppp2r5e 0.678, GGUAACGGGACCAACACUUTT against Otop3 1.26, GGACUUCAAGUACGUGCUGTT against P2ry2 1.9, GGCAGAGGAGUCCUGUAAATT against Kat2b -1.63, GGGCCACAAGCCUUCUAUUTT against Acvr2b -1.03, CCAGACUUAUGACAACAAATT against Colec12 0.406, CGGGCUAUAUUACCUUGGCTT against Phf19 0.0765, GGACACCUCAUGAAGUAAUTT against Sav1 -0.04, CCUUCAUUCUCAUGUGACCTT against Psat1 -1.2, CCCACUUACUUUUGAUGUUTT against Uba1 -0.232, GGAGAAGCUCAUCUCUCUGTT against Rfx2 -1.35, CGAAAACUUCAUAGCUACATT against Hmg20a -1.95, CCUUUUAGGCUUCCAGAAUTT against Mfsd10 -0.236, GCCAUCAAUGAUGUGCUCUTT against Zswim5 -0.186, GGAACCAGUAUCCUGACAUTT against Prop1 -0.592, GGAUUUAGGCUACUUUUUCTT against Art4 -0.387, GCCCUGGCAAAAGAUACCATT against Cidec -0.323, GGCAACAGUACCAAAGACATT against Rps24 0.483, GGCUUUACGUGACAAAGAUTT against 4933430I17Rik 0.266, GGAAGAAAUACAGAAUAACTT against Npr3 0.388, GGAUGAGGACGAGUUCGUUTT against Ppm1n 0.361, CCUGAUAGGACCUAAUUGATT against Tom1 -1.85, GCUCAUGAUCAUAUCAUGATT against 1810055G02Rik 0.647, GAAGAUUAUCCAUUGCCCGTT against Lce1h 0.689, GGAAUGCUUAGUGAAAUUUTT against Ahctf1 0.481, GGGUCUCAAACUAAAUACUTT against Rangap1 0.538, CCGAGGAUGGCCACAUAUGTT against Prss30 -0.0711, GGCCUUUGUGUAUAUCUAUTT against Vmn1r85 1.7, GGAAGGAAGAGAAAAACAATT against Slu7 -0.188, GGGACUACCUCAUGUCAUUTT against Smad1 0.632, GGUUGACAUGAGUAACAUATT against Dlst 0.588, GGAUUUCAAAUCCUUCCUGTT against Shmt2 0.263, GCAGAGGAGUGAAUAGAUATT against Dtx3l 0.45, UUCUACGUCUGUCUUCUUATT against Olfr180 -0.211, GGAAGCUACAAAAAACCUCTT against Luzp1 1.63, GCGAAUGAUUGUCAGCAAATT against Gata1 0.304, GGGUAACUAGAAACAGACUTT against Olfr1351 -0.152, GGAACUUCUCUGUUUUAGATT against Olfr802 -1.87, GCAAUUGAAGCAAUUGACUTT against Otud6b -1.21
